PubChem BioAssay AID743454 – Peter MacCallum Cancer Centre, 2014

- Screen: 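Knock-downs lowering viability or raising caspase 3/7 activity in vorinostat-treated resistant cells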 (primary screen)
- Cell system: human HCT116-VR colon cancer cells, selected for vorinostat resistance
- Reagents: siRNA pool against human genes, 40 nM siRNA pool
- Timing: vorinostat for 24 h, read-out about 72 h after transfection
- Treatment: vorinostat at 2.5 µM final
- Measured: 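Two measures, CellTiter-Fluor viability and luminescent caspase 3/7 activity, each as fold change against same-plate mock wells, mean of duplicates, then screen-wide robust z-score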
- Scale: viability robust z-score: higher = more viable cells than screen typical; caspase robust z-score: higher = more caspase 3/7 activity than screen typical
- Hit rule: 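a knock-down is a hit when classed RV1 or RV2 for lowered viability, or CA1 or CA2 for caspase activation; those lethal without drug were dropped; hits were retested singly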
This is one part, drawn at random, of about 18,000 reagents tested. Over the whole deposit, 450 (2.5%) were called active. 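Single biological run; no consistent viability z cut-off exists, so the class columns, not z-scores, define the calls.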 Reagent sequences are not shown.

| gene symbol | viability hit class | caspase hit class | viability robust z-score | caspase robust z-score | Outcome |
| --- | --- | --- | --- | --- | --- |
| MICA (MHC class I polypeptide-related sequence A) | no change | no change | -1.07 | -0.9 | inactive |
| ARMCX2 (armadillo repeat containing X-linked 2) | no change | no change | 0.34 | -0.36 | inactive |
| MFAP4 (microfibril associated protein 4) | no change | no change | -1.31 | 2.09 | inactive |
| CNBD2 (cyclic nucleotide binding domain containing 2) | no change | no change | 0.89 | -0.15 | inactive |
| PPP4R3B (protein phosphatase 4 regulatory subunit 3B) | no change | no change | 0.71 | 0.14 | inactive |
| VIT (vitrin) | no change | no change | 1.18 | 0.39 | inactive |
| SBK1 (SH3 domain binding kinase 1) | no change | no change | -0.97 | -0.94 | inactive |
| IFI27L1 (interferon alpha inducible protein 27 like 1) | no change | no change | 0.54 | 0.03 | inactive |
| PSG2 (pregnancy specific beta-1-glycoprotein 2) | no change | no change | 0.46 | -1.13 | inactive |
| CCL4L1 (C-C motif chemokine ligand 4 like 1) | no change | no change | 0.57 | 0.34 | inactive |
| FAM181A (family with sequence similarity 181 member A) | no change | no change | 0.62 | 3.1 | inactive |
| NF1 (neurofibromin 1) | no change | no change | 0.12 | -0.21 | inactive |
| UNC119 (unc-119 lipid binding chaperone) | no change | no change | 2.6 | -0.4 | inactive |
| DSG3 (desmoglein 3) | no change | no change | 0.81 | -0.6 | inactive |
| DSCR9 (Down syndrome critical region 9) | no change | no change | -2.49 | -1.34 | inactive |
| PHEX (phosphate regulating endopeptidase X-linked) | no change | no change | 0.32 | 0.18 | inactive |
| TEX261 (testis expressed 261) | no change | no change | -0.44 | 3.72 | inactive |
| P2RX6 (purinergic receptor P2X 6) | no change | no change | -1.16 | 3.77 | inactive |
| ZNF786 (zinc finger protein 786) | no change | no change | 0.57 | 0.03 | inactive |
| UBE3A (ubiquitin protein ligase E3A) | no change | no change | -1.85 | 3.02 | inactive |
| YIPF1 (Yip1 domain family member 1) | no change | no change | -0.44 | 0.2 | inactive |
| PLXNB1 (plexin B1) | no change | no change | -3.87 | 1.36 | inactive |
| CCDC8 (coiled-coil domain containing 8 subunit of 3M complex) | no change | no change | -0.58 | 2.29 | inactive |
| ESYT2 (extended synaptotagmin 2) | no change | no change | -1.38 | 3.15 | inactive |
| ITPKC (inositol-trisphosphate 3-kinase C) | no change | no change | -0.14 | -1.09 | inactive |
| COPZ2 (coat protein complex I subunit zeta 2) | no change | no change | -2.91 | -1.21 | inactive |
| MRPL16 (mitochondrial ribosomal protein L16) | no change | no change | 0.54 | 2.58 | inactive |
| SRD5A1 (steroid 5 alpha-reductase 1) | no change | no change | -1.6 | 0.25 | inactive |
| CACNA1E (calcium voltage-gated channel subunit alpha1 E) | no change | no change | -0.99 | 2.6 | inactive |
| ZNF671 (zinc finger protein 671) | no change | no change | 0.18 | -0.3 | inactive |
| SLC35H1 | no change | no change | -0.04 | -0.66 | inactive |
| INO80E (INO80 complex subunit E) | no change | no change | -0.41 | -0.52 | inactive |
| PRPH (peripherin) | no change | no change | 0.92 | 1.66 | inactive |
| MRPL36 (mitochondrial ribosomal protein L36) | no change | no change | 0.7 | -0.45 | inactive |
| SNCB (synuclein beta) | no change | no change | -0.67 | -0.42 | inactive |
| OR2M2 (olfactory receptor family 2 subfamily M member 2) | no change | no change | -0.9 | 1.8 | inactive |
| TTI1 (TELO2 interacting protein 1) | no change | no change | 1.1 | 3.92 | inactive |
| CA4 (carbonic anhydrase 4) | no change | no change | -1.07 | 0.44 | inactive |
| E2F5 (E2F transcription factor 5) | no change | no change | 0.56 | -0.72 | inactive |

Not a retest: an excerpt of the list.
| gene symbol | viability hit class | caspase hit class | viability robust z-score | caspase robust z-score | Outcome |
| --- | --- | --- | --- | --- | --- |
| VIT (vitrin) | no change | no change | 1.18 | 0.39 | inactive |
| SBK1 (SH3 domain binding kinase 1) | no change | no change | -0.97 | -0.94 | inactive |
| IFI27L1 (interferon alpha inducible protein 27 like 1) | no change | no change | 0.54 | 0.03 | inactive |
| PSG2 (pregnancy specific beta-1-glycoprotein 2) | no change | no change | 0.46 | -1.13 | inactive |
| CCL4L1 (C-C motif chemokine ligand 4 like 1) | no change | no change | 0.57 | 0.34 | inactive |
| FAM181A (family with sequence similarity 181 member A) | no change | no change | 0.62 | 3.1 | inactive |
